The values that follow come from PMC11367503, “Exploring galectin interactions with human milk oligosaccharides and blood group antigens identifies BGA6 as a functional galectin-4 ligand” (The Journal of Biological Chemistry, 2024).

Chains of the proteins cited; added tags and fusions are not shown.
UniProt P47929: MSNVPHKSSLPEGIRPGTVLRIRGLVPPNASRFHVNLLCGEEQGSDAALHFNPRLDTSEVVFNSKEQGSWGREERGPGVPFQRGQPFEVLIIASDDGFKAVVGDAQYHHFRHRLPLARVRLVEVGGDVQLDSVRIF
UniProt P09382: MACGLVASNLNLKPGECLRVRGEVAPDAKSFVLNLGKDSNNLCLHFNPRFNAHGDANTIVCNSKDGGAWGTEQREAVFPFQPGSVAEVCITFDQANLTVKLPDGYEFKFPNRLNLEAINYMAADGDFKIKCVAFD
UniProt P17931: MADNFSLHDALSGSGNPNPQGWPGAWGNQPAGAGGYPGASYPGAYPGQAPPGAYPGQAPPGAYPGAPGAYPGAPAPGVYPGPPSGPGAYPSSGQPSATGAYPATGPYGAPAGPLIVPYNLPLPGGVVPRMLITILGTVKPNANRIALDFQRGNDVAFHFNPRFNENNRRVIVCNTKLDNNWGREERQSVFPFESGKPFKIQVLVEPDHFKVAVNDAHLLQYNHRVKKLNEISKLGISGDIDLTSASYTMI

For this assay, the target named is T1, asialofetuin (UniProt P12763).
T1 sequence: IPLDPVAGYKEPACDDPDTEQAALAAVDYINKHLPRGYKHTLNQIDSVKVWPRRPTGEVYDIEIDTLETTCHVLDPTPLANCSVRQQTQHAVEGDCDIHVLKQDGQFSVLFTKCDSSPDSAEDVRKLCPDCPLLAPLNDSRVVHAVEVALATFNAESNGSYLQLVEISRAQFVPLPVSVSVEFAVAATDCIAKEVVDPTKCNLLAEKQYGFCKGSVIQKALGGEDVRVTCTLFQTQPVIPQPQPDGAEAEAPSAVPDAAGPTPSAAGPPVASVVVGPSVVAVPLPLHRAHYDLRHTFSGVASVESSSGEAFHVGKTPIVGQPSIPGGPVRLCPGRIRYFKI
The assay can be described thus: ELISA; competitive solid-phase assay (SPA): asialofetuin 10 ug/ml coated on 96-well plates in sodium carbonate buffer pH 9.6; galectin (20-40 ug/ml) in PBS-BSA 0.3% preincubated with serial dilutions of oligosaccharide inhibitors (2 h, 37 C); bound galectin detected with anti-galectin antibodies and HRP; both purified.

No constants are given. Whether binding was seen depends on the method and setting. Some binding calls cover weakened binding; strength is not graded here.

For “human galectin-7 (from UniProt P47929 1-136)”, the binding entry is “binds”.

For “human galectin-1 (from UniProt P09382 1-135)”, the binding entry is reported as “binds”.

For “human galectin-3 (from UniProt P17931 1-250)”, the binding entry is listed as “binds”.

B1: full-length human galectin-4 (protein, UniProt P56470 1-323)
chain: MAYVPAPGYQPTYNPTLPYYQPIPGGLNVGMSVYIQGVASEHMKRFFVNFVVGQDPGSDVAFHFNPRFDGWDKVVFNTLQGGKWGSEERKRSMPFKKGAAFELVFIVLAEHYKVVVNGNPFYEYGHRLPLQMVTHLQVDGDLQLQSINFIGGQPLRPQGPPMMPPYPGPGHCHQQLNSLPTMEGPPTFNPPVPYFGRLQGGLTARRTIIIKGYVPPTGKSFAINFKVGSSGDIALHINPRMGNGTVVRNSLLNGSWGSEEKKITHNPFGPGQFFDLSIRCGLDRFKVYANGQHLFDFAHRLSAFQRVDTLEIQGDVTLSYVQI
Take B1: the binding result is given as “binds”.

B2: full-length human galectin-12 (protein, UniProt Q96DT0 1-336)
chain: MSQPSGGRAPGTRIYSWSCPTVMSPGEKLDPIPDSFILQPPVFHPVVPYVTTIFGGLHAGKMVMLQGVVPLDAHRFQVDFQCGCSLCPRPDIAFHFNPRFHTTKPHVICNTLHGGRWQREARWPHLALRRGSSFLILFLFGNEEVKVSVNGQHFLHFRYRLPLSHVDTLGIFGDILVEAVGFLNINPFVEGSREYPAGHPFLLMSPRLEVPCSHALPQGLSPGQVIIVRGLVLQEPKHFTVSLRDQAAHAPVTLRASFADRTLAWISRWGQKKLISAPFLFYPQRFFEVLLLFQEGGLKLALNGQGLGATSMNQQALEQLRELRISGSVQLYCVHS
As for B2, the binding result was “binds”.
